The name of at least one read-out is uncertain.
System: penicillin susceptible and resistant pneumococcal strains (2 quinolone resistant)
Assay: Time-kill testing of 12 pneumococcal strains
Assay type: cell-based, Streptococcus pneumoniae
Conditions: of 12 strains (macrolides 7)
Method in brief: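 Pneumococci at 5×10^5–5×10^6 cfu/ml were exposed to doubling antibiotic concentrations in cation-adjusted Mueller-Hinton broth + 5% lysed horse blood at 35 °C with shaking. Viable counts (detection limit 300 cfu/ml) were taken at 0, 3, 6, 12 and 24 h.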

`CC[C@H]1OC(=O)[C@H](C)[C@@H](O[C@H]2C[C@@](C)(OC)[C@@H](O)[C@H](C)O2)[C@H](C)[C@@H](O[C@@H]2O[C@H](C)C[C@H](N(C)C)[C@H]2O)[C@](C)(OC)C[C@@H](C)C(=O)[C@H](C)[C@@H](O)[C@]1(C)O` [Clarithromycin, clarithromycin] was tested, and the “No. strains −1 Log10 cfu/ml lower than 0 h” value (3 h, 0.25 × MIC) was 0 No. strains, the “No. strains −2 Log10 cfu/ml lower than 0 h” value (3 h, 0.25 × MIC) was 0 No. strains and the “No. strains −3 Log10 cfu/ml lower than 0 h” value (3 h, 0.25 × MIC) was 0 No. strains. For the same compound, the “No. strains −1 Log10 cfu/ml lower than 0 h” value (3 h, 0.5 × MIC) was 1 No. strains, the “No. strains −2 Log10 cfu/ml lower than 0 h” value (3 h, 0.5 × MIC) was 0 No. strains and the “No. strains −3 Log10 cfu/ml lower than 0 h” value (3 h, 0.5 × MIC) was 0 No. strains. The “No. strains −1 Log10 cfu/ml lower than 0 h” value (3 h, 2 × MIC) was 3 No. strains, the “No. strains −2 Log10 cfu/ml lower than 0 h” value (3 h, 2 × MIC) was 2 No. strains and the “No. strains −3 Log10 cfu/ml lower than 0 h” value (3 h, 2 × MIC) was 0 No. strains. The “No. strains −1 Log10 cfu/ml lower than 0 h” value (3 h, 4 × MIC) was 3 No. strains, the “No. strains −2 Log10 cfu/ml lower than 0 h” value (3 h, 4 × MIC) was 2 No. strains and the “No. strains −3 Log10 cfu/ml lower than 0 h” value (3 h, 4 × MIC) was 0 No. strains. For the same compound, the “No. strains −1 Log10 cfu/ml lower than 0 h” value (3 h, 8 × MIC) was 4 No. strains, the “No. strains −2 Log10 cfu/ml lower than 0 h” value (3 h, 8 × MIC) was 2 No. strains and the “No. strains −3 Log10 cfu/ml lower than 0 h” value (3 h, 8 × MIC) was 0 No. strains. The “No. strains −1 Log10 cfu/ml lower than 0 h” value (3 h, MIC) was 3 No. strains, the “No. strains −2 Log10 cfu/ml lower than 0 h” value (3 h, MIC) was 1 No. strains and the “No. strains −3 Log10 cfu/ml lower than 0 h” value (3 h, MIC) was 0 No. strains. The “No. strains −1 Log10 cfu/ml lower than 0 h” value (6 h, 0.25 × MIC) was 0 No. strains, the “No. strains −2 Log10 cfu/ml lower than 0 h” value (6 h, 0.25 × MIC) was 0 No. strains and the “No. strains −3 Log10 cfu/ml lower than 0 h” value (6 h, 0.25 × MIC) was 0 No. strains. For the same compound, the “No. strains −1 Log10 cfu/ml lower than 0 h” value (6 h, 0.5 × MIC) was 3 No. strains, the “No. strains −2 Log10 cfu/ml lower than 0 h” value (6 h, 0.5 × MIC) was 0 No. strains and the “No. strains −3 Log10 cfu/ml lower than 0 h” value (6 h, 0.5 × MIC) was 0 No. strains. For the same compound, the “No. strains −1 Log10 cfu/ml lower than 0 h” value (6 h, 2 × MIC) was 5 No. strains, the “No. strains −2 Log10 cfu/ml lower than 0 h” value (6 h, 2 × MIC) was 2 No. strains and the “No. strains −3 Log10 cfu/ml lower than 0 h” value (6 h, 2 × MIC) was 2 No. strains. The “No. strains −1 Log10 cfu/ml lower than 0 h” value (6 h, 4 × MIC) was 7 No. strains, the “No. strains −2 Log10 cfu/ml lower than 0 h” value (6 h, 4 × MIC) was 2 No. strains and the “No. strains −3 Log10 cfu/ml lower than 0 h” value (6 h, 4 × MIC) was 2 No. strains. The “No. strains −1 Log10 cfu/ml lower than 0 h” value (6 h, 8 × MIC) was 7 No. strains, the “No. strains −2 Log10 cfu/ml lower than 0 h” value (6 h, 8 × MIC) was 2 No. strains and the “No. strains −3 Log10 cfu/ml lower than 0 h” value (6 h, 8 × MIC) was 2 No. strains. The “No. strains −1 Log10 cfu/ml lower than 0 h” value (6 h, MIC) was 5 No. strains, the “No. strains −2 Log10 cfu/ml lower than 0 h” value (6 h, MIC) was 0 No. strains and the “No. strains −3 Log10 cfu/ml lower than 0 h” value (6 h, MIC) was 1 No. strains. For the same compound, the “No. strains −1 Log10 cfu/ml lower than 0 h” value (12 h, 0.25 × MIC) was 0 No. strains, the “No. strains −2 Log10 cfu/ml lower than 0 h” value (12 h, 0.25 × MIC) was 0 No. strains and the “No. strains −3 Log10 cfu/ml lower than 0 h” value (12 h, 0.25 × MIC) was 0 No. strains. For the same compound, the “No. strains −1 Log10 cfu/ml lower than 0 h” value (12 h, 0.5 × MIC) was 1 No. strains, the “No. strains −2 Log10 cfu/ml lower than 0 h” value (12 h, 0.5 × MIC) was 1 No. strains and the “No. strains −3 Log10 cfu/ml lower than 0 h” value (12 h, 0.5 × MIC) was 1 No. strains. The “No. strains −1 Log10 cfu/ml lower than 0 h” value (12 h, 2 × MIC) was 5 No. strains, the “No. strains −2 Log10 cfu/ml lower than 0 h” value (12 h, 2 × MIC) was 5 No. strains and the “No. strains −3 Log10 cfu/ml lower than 0 h” value (12 h, 2 × MIC) was 4 No. strains. The “No. strains −1 Log10 cfu/ml lower than 0 h” value (12 h, 4 × MIC) was 5 No. strains, the “No. strains −2 Log10 cfu/ml lower than 0 h” value (12 h, 4 × MIC) was 5 No. strains and the “No. strains −3 Log10 cfu/ml lower than 0 h” value (12 h, 4 × MIC) was 5 No. strains. The “No. strains −1 Log10 cfu/ml lower than 0 h” value (12 h, 8 × MIC) was 5 No. strains, the “No. strains −2 Log10 cfu/ml lower than 0 h” value (12 h, 8 × MIC) was 5 No. strains and the “No. strains −3 Log10 cfu/ml lower than 0 h” value (12 h, 8 × MIC) was 5 No. strains. The “No. strains −1 Log10 cfu/ml lower than 0 h” value (12 h, MIC) was 5 No. strains, the “No. strains −2 Log10 cfu/ml lower than 0 h” value (12 h, MIC) was 5 No. strains and the “No. strains −3 Log10 cfu/ml lower than 0 h” value (12 h, MIC) was 2 No. strains. The “No. strains −1 Log10 cfu/ml lower than 0 h” value (24 h, 0.25 × MIC) was 0 No. strains, the “No. strains −2 Log10 cfu/ml lower than 0 h” value (24 h, 0.25 × MIC) was 0 No. strains and the “No. strains −3 Log10 cfu/ml lower than 0 h” value (24 h, 0.25 × MIC) was 0 No. strains. For the same compound, the “No. strains −1 Log10 cfu/ml lower than 0 h” value (24 h, 0.5 × MIC) was 4 No. strains, the “No. strains −2 Log10 cfu/ml lower than 0 h” value (24 h, 0.5 × MIC) was 3 No. strains and the “No. strains −3 Log10 cfu/ml lower than 0 h” value (24 h, 0.5 × MIC) was 1 No. strains. The “No. strains −1 Log10 cfu/ml lower than 0 h” value (24 h, 2 × MIC) was 7 No. strains, the “No. strains −2 Log10 cfu/ml lower than 0 h” value (24 h, 2 × MIC) was 7 No. strains and the “No. strains −3 Log10 cfu/ml lower than 0 h” value (24 h, 2 × MIC) was 7 No. strains. The “No. strains −1 Log10 cfu/ml lower than 0 h” value (24 h, 4 × MIC) was 7 No. strains, the “No. strains −2 Log10 cfu/ml lower than 0 h” value (24 h, 4 × MIC) was 7 No. strains and the “No. strains −3 Log10 cfu/ml lower than 0 h” value (24 h, 4 × MIC) was 7 No. strains. For the same compound, the “No. strains −1 Log10 cfu/ml lower than 0 h” value (24 h, 8 × MIC) was 7 No. strains, the “No. strains −2 Log10 cfu/ml lower than 0 h” value (24 h, 8 × MIC) was 7 No. strains and the “No. strains −3 Log10 cfu/ml lower than 0 h” value (24 h, 8 × MIC) was 7 No. strains. The “No. strains −1 Log10 cfu/ml lower than 0 h” value (24 h, MIC) was 7 No. strains, the “No. strains −2 Log10 cfu/ml lower than 0 h” value (24 h, MIC) was 7 No. strains and the “No. strains −3 Log10 cfu/ml lower than 0 h” value (24 h, MIC) was 5 No. strains.

From patent publication US20040044006A1, “Methods of use of quinolone compounds against pneumococcal and haemophilus bacteria” (priority 1999, published 2004)
